Values from PubChem BioAssay AID1259254 (NCATS, 2017).

Assay: 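Finding genes that stop cells copying their DNA twice in one cycle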 (primary screen)
Cell system: human HCT116 colorectal cancer cells
Knock-down reagent: single siRNA against human genes
Duration: 3 days
Measured: 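Imaged Hoechst DNA stain sorts each cell into a cycle phase by DNA amount; per plate, G2 fraction set to 0% for non-targeting and 100% for GMNN siRNA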
Scale: G2 robust z-score and G2 cells, % of GMNN control: higher = more G2 cells, more excess DNA replication; raw share of cells in G2: higher = larger share of cells with G2 DNA content
Active means: 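Active siRNAs have a G2 robust z of 5 or more median absolute deviations over the median, which in these data means about 38% or higher of GMNN control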
Shown is an unselected part of about 59,000 reagents tested. About 1,550 of them (2.6%) count as active. 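G2 share is only a proxy for re-replication; each gene was hit by three separate siRNAs, and active genes were retested.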 The raw values are shown without normalisation. A number with no mark means an inactive call. The numbers tell different reagents against one gene apart. The record does not give: the amount of reagent.

target gene	reagent	G2 robust z-score	G2 cells, % of GMNN control	raw share of cells in G2 (%)
TSLIG1	1	6.78 (active)	50.7	21.4
TSLIG1	2	1.56	13.9	9.35
TSLIG1	3	-0.0752	2.44	5.17
ACTL6B	1	-1.08	-4.6	3.87
ACTL6B	2	-0.867	-3.14	3.09
ACTL6B	3	-0.646	-1.58	3.19
NKAIN4	1	0.0465	3.29	5.42
NKAIN4	2	0.374	5.6	4.88
NKAIN4	3	-0.841	-2.95	1.51
HTRA2	1	0.595	7.16	8.05
HTRA2	2	-1.19	-5.44	2.98
HTRA2	3	0.515	6.59	6.37
POU4F2	1	-1.08	-4.65	1.61
POU4F2	2	-0.142	1.97	5.77
POU4F2	3	0.517	6.6	5.5
SAMTOR	1	-0.684	-1.85	2.94
SAMTOR	2	2.64	21.6	10.2
SAMTOR	3	-0.641	-1.54	2.27
DCHS1	1	0.485	6.38	6.99
DCHS1	2	-1.89	-10.4	1.63
DCHS1	3	-0.31	0.785	4.89
PRELID2	1	3.72	29.1	14
PRELID2	2	1.09	10.7	6.53
PRELID2	3	-0.0532	2.59	3.58
ARID4A	1	-0.4	0.152	3.52
ARID4A	2	0.661	7.62	8.41
ARID4A	3	0.812	8.68	6.26
SEC11C	1	1.01	10.1	9.86
SEC11C	2	-0.961	-3.79	3.23
SEC11C	3	-0.475	-0.374	4.12

2 of these entries, set out differently.
{"target gene":"ARID4A","reagent":3,"G2 robust z-score":0.812,"G2 cells, % of GMNN control":8.68,"raw share of cells in G2 (%)":6.26}
{"target gene":"SEC11C","reagent":1,"G2 robust z-score":1.01,"G2 cells, % of GMNN control":10.1,"raw share of cells in G2 (%)":9.86}
